According to paper PMC5833850:
No constants are given. Whether binding was seen depends on the method and setting. In cells and extracts the contact can be indirect. Some entries that bind do so weakly or less than the wild type.

Target: wild-type Myc-PHB2 (prohibitin 2) (UniProt Q99623)
Assay: co-IP; L02 cells co-transfected for 48 h, treated with 400 uM GCDCA for 4 h, lysed in IP/lysis buffer; supernatant incubated with Myc-Tag or Flag-Tag Sepharose bead conjugate overnight at 4 °C; western blot with HA, Flag and Myc antibodies; also SQSTM1 knockdown cells

binding: binds
Substance: Flag-SQSTM1 (sequestosome 1) (from UniProt Q13501 1-440)
